{"source": "the supplement of paper PMC11060735", "note": "“And” between values parts separate entries of the source, which are not always exact repeats. Equal entries are not always repeated. Structures can show the parent of a compound that is named as a salt. ± gives the standard deviation of the averaged measurements. The full ranking holds about 1,800 compounds; the median of “GFP- (p16Ink4a-) cell count relative to negative-control wells” is about 0.99, and the lowest 2% start at about 0.5. The list shows a part of the results.", "data": [{"tested_on": "mouse p16Ink4a+/- lung fibroblasts (INKBRITE, bleomycin-injured)", "experiment": "GFP- (p16Ink4a-) cell count relative to negative-control wells (fold of vehicle); higher = more p16Ink4a- cells surviving", "conditions": "1 µM; 3 days", "values": [{"compound": "O=C(O[C@H]1C[C@H]2CC[C@@H](C1)[N+]21CCCC1)C(O)(c1ccccc1)c1ccccc1", "note": "[Trospium]", "GFP-": 0.905}, {"compound": "O=C1C=CC[C@@H]2[C@H]3CCCN4CCC[C@@H](CN12)[C@@H]34", "note": "[Sophocarpine]", "GFP-": 1.13}, {"compound": "COC[C@H]1OC(=O)c2coc3c2[C@@]1(C)C1=C(C3=O)[C@@H]2CCC(=O)[C@@]2(C)C[C@H]1OC(C)=O", "note": "[Wortmannin]", "GFP-": 1.07}, {"compound": "CC[C@@]1(O)C(=O)OCc2c1cc1n(c2=O)Cc2cc3ccccc3nc2-1", "note": "[Camptothecin]", "GFP-": 0.7}, {"compound": "C[C@@]12N[C@@H](Cc3ccccc31)c1ccccc12", "note": "[(-)-MK 801 Maleate]", "GFP-": 1.02}, {"compound": "Cc1sc2c(c1C)C(c1ccc(Cl)cc1)=N[C@@H](CC(=O)Nc1ccc(O)cc1)c1nnc(C)n1-2", "GFP-": "0.844 ± 0.048"}, {"compound": "Cc1cccc(Cc2c[nH]cn2)c1C", "note": "[Detomidine HCl]", "GFP-": 0.991}, {"compound": "CN(C)[C@@H]1C(=O)C(C(N)=O)=C(O)[C@@]2(O)C(O)=C3C(=O)c4c(O)cccc4[C@@](C)(O)[C@H]3[C@H](O)[C@@H]12", "note": "[Oxytetracycline]", "GFP-": 1.13}, {"compound": "CN(C)CCc1ccc(O)cc1", "note": "[Hordenine]", "GFP-": 1.1}, {"compound": "COC1=C[C@@H]2[C@@H]3Cc4ccc(OC)c(O)c4[C@]2(CCN3C)CC1=O", "note": "[Sinomenine]", "GFP-": 1.08}, {"compound": "CCC1(c2ccc(N)cc2)CCC(=O)NC1=O", "note": "(racemic) [(¬±)-p-aminoglutethimide, Aminoglutethimide]", "GFP-": 1}, {"compound": "CC1(C)CC(O)CC(C)(C)N1O", "note": "[Tempol]", "GFP-": 1.05}, {"compound": "O=C(O[C@H]1C[N+]2(CCCOc3ccccc3)CCC1CC2)C(O)(c1cccs1)c1cccs1", "note": "[Aclidinium]", "GFP-": 1.03}, {"compound": "CN1c2ccccc2C(NCCCCCCC(=O)O)c2ccc(Cl)cc2S1(=O)=O", "note": "(stereo unspecified) [Tianeptine]", "GFP-": 1.04}, {"compound": "C[C@H]1CNCCc2ccc(Cl)cc21", "note": "[Lorcaserin]", "GFP-": 1.02}, {"compound": "N#CC(C#N)=Cc1ccc(O)c(O)c1", "GFP-": 1.13}, {"compound": "CC(C)(C)c1cc(C=C(C#N)C#N)cc(C(C)(C)C)c1O", "note": "[Tyrphostin A9]", "GFP-": 0.845}, {"compound": "CC(C)(C)c1cc(C=C(C#N)C#N)cc(Br)c1O", "GFP-": 0.552}, {"compound": "CCCN1C[C@H](CSC)C[C@@H]2c3cccc4[nH]cc(c34)C[C@H]21", "note": "[Pergolide]", "GFP-": 0.869}, {"compound": "CN(C)[C@@H]1C(=O)C(C(N)=O)=C(O)[C@@]2(O)C(O)=C3C(=O)c4c(O)cccc4[C@@](C)(O)[C@H]3C[C@@H]12", "note": "[Tetracycline]", "GFP-": 1.07}, {"compound": "CC(NC(C)(C)C)C(=O)c1cccc(Cl)c1", "note": "(stereo unspecified)", "GFP-": 0.921}, {"compound": "C[C@]12CC(C=O)=C(O)C[C@@H]1CC[C@@H]1[C@H]2CC[C@@]2(C)[C@H]1CC[C@@]2(C)O", "note": "[Oxymetholone]", "GFP-": 0.957}, {"compound": "CCNC(=O)C[C@@H]1N=C(c2ccc(Cl)cc2)c2cc(OC)ccc2-n2c(C)nnc21", "GFP-": "1.04 ± 0.19"}, {"compound": "c1cc2c(cc1[C@H]1OC[C@H]3[C@@H]1CO[C@@H]3c1ccc3c(c1)OCO3)OCO2", "note": "[Sesamin]", "GFP-": 1.02}, {"compound": "CN1CCN(c2nc3ccccc3nc2Cl)CC1", "GFP-": 1.06}, {"compound": "Cn1c(CCCC(=O)O)nc2cc(N(CCCl)CCCl)ccc21", "note": "[Bendamustine]", "GFP-": 0.945}, {"compound": "Cc1cccc(C)c1NC(=O)CN1CCCC1=O", "note": "[Nefiracetam]", "GFP-": 0.97}, {"compound": "CC(C)NCC(O)c1ccccc1Cl", "note": "(stereo unspecified) [Clorprenaline]", "GFP-": 1.02}, {"compound": "CCOC(=O)c1cncn1C(C)c1ccccc1", "note": "(stereo unspecified) [Etomidate]", "GFP-": 1.09}, {"compound": "O=C(NCC1CCOCC1)c1cnc(Nc2ccc(Cl)cc2Cl)nc1C(F)(F)F", "GFP-": 1.07}, {"compound": "CN(C)C(=O)Oc1ccc[n+](C)c1", "note": "[Pyridostigmine]", "GFP-": 0.948}, {"compound": "O=[N+]([O-])c1ncc[nH]1", "note": "[Azomycin]", "GFP-": 0.973}, {"compound": "O=C(O)CNC(=O)c1c(O)c2ccccc2n(Cc2ccccc2)c1=O", "GFP-": "1.07 ± 0.046"}, {"compound": "N#C[C@H](O[C@@H]1O[C@H](CO[C@@H]2O[C@H](CO)[C@@H](O)[C@H](O)[C@H]2O)[C@@H](O)[C@H](O)[C@H]1O)c1ccccc1", "note": "[Amygdalin(d)]", "GFP-": 1.01}, {"compound": "CO[C@H]1CCC(O[C@H]2C[C@H]([C@]3(C)CC[C@]4(C[C@H](O)[C@@H](C)[C@@H]([C@@H](C)/C=C(\\C)C(=O)[C@H](C)C[C@H](C)C(=O)O)O4)O3)O[C@]3(O[C@@H]([C@H]4O[C@@](O)(CO)[C@H](C)C[C@@H]4C)C[C@@H]3C)[C@@H]2C)O[C@@H]1C", "note": "(stereo partly specified) [Nanchangmycin]", "GFP-": 0.412}, {"compound": "OC(c1ccccc1)(c1ccccc1)C1CCNCC1", "note": "[Azacyclonol]", "GFP-": 0.849}, {"compound": "Fc1cc(F)c2c(c1)[C@H]1C=CC[C@H]1C(c1cccnc1)N2", "note": "(stereo partly specified) [Golgicide A]", "GFP-": 1.02}, {"compound": "CN1[C@@H]2C[C@@H](OC(=O)[C@H](CO)c3ccccc3)C[C@H]1[C@@H]1O[C@@H]12", "note": "[Scopolamine]", "GFP-": 0.984}, {"compound": "CNCC(O)c1ccc(O)cc1", "note": "(stereo unspecified) [Synephrine]", "GFP-": "0.99 and 0.934"}, {"compound": "O=[N+]([O-])/C=C/c1ccc2c(c1)OCO2", "GFP-": 1.03}, {"compound": "CN1C(=O)CCS(=O)(=O)C1c1ccc(Cl)cc1", "note": "(stereo unspecified) [Chlomezanone, Chlormezanone]", "GFP-": 1.03}, {"compound": "C[C@@H]1CC[C@H]2[C@@H](C)C(=O)O[C@@H]3O[C@@]4(C)CC[C@@H]1[C@]32OO4", "note": "[Artemisinin]", "GFP-": 0.865}, {"compound": "CC(=O)O[C@H]1C[C@@H]2CC[C@@H]3[C@H](CC[C@@]4(C)[C@H]3C[C@H]([N+]3(C)CCCCC3)[C@@H]4OC(C)=O)[C@@]2(C)C[C@@H]1[N+]1(C)CCCCC1", "note": "[Pancuronium]", "GFP-": 1.02}, {"compound": "CCCCCCCCCCCCCCCC[n+]1ccccc1", "note": "[Cetylpyridinium Bromide]", "GFP-": 0.866}, {"compound": "c1ccc2c(c1)Nc1ccccc1S2", "note": "[Phenothiazine]", "GFP-": 1.1}, {"compound": "CC[C@H]1/C=C\\C=C/C[C@@H](C)[C@H](O)[C@@](C)(O)C(=O)[C@@H](C)[C@H](O)[C@@H](C)C(=O)[C@@H](C)[C@H](O)[C@@H](C)/C=C/C(=O)O[C@@H]2C(C)[C@H](CC1)O[C@]1(CC[C@H](C)[C@H](C[C@@H](C)O)O1)[C@H]2C", "note": "(stereo partly specified) [Oligomycin A]", "GFP-": 0.887}, {"compound": "C[C@H]1CCC/C=C/[C@@H]2C[C@H](O)C[C@H]2[C@H](O)/C=C/C(=O)O1", "note": "[Brefeldin A]", "GFP-": 0.4}, {"compound": "CCCN1CCO[C@H]2c3cc(O)ccc3OC[C@@H]21", "GFP-": 1.04}, {"compound": "C[C@]12CCC(=O)C(O)=C1CC[C@@H]1[C@@H]2CC[C@]2(C)C(=O)CC[C@@H]12", "note": "[Formestane]", "GFP-": 1.08}, {"compound": "CCN1C[C@]2(OC(=O)c3ccccc3NC(C)=O)CC[C@H](OC)[C@]34C1[C@H](C[C@H]23)[C@@]1(O)C[C@H](OC)[C@H]2C[C@@H]4[C@]1(O)[C@H]2OC", "note": "[Lappaconite HBr]", "GFP-": 0.936}, {"compound": "C#C[C@]1(O)C=C[C@H]2[C@@H]3CCC4=CC(=O)CC[C@@H]4[C@H]3CC[C@@]21CC", "note": "[Gestodene]", "GFP-": 1.08}, {"compound": "C[C@]12N[C@H](Cc3ccccc31)c1ccccc12", "note": "[(+)-mk-801 Hydrogen Maleate]", "GFP-": 1.17}, {"compound": "CC[C@@H]1[C@@H](C)O[C@@](O)([C@@H](C)[C@H](O)[C@H](C)[C@H]2OC(=O)/C=C/C=C/[C@H](C)[C@H]([C@@H](C)[C@@H](O)[C@H](C)[C@@]3(O)C[C@@H](O[C@H]4C[C@H](O)[C@H](O)[C@H](C)O4)[C@H](CC)[C@@H](C)O3)OC(=O)/C=C/C=C/[C@H]2C)C[C@H]1O[C@H]1C[C@H](O)[C@H](O)[C@H](C)O1", "note": "[Elaiophylin]", "GFP-": 0.414}, {"compound": "CC(=O)O[C@@]12CO[C@@H]1C[C@H](O)[C@@]1(C)C(=O)[C@H](O)C3=C(C)[C@@H](O)C[C@@](O)([C@@H](OC(=O)c4ccccc4)[C@H]21)C3(C)C", "note": "[10-Deacetylbaccatin-III]", "GFP-": 1.07}, {"compound": "C/C(=C\\c1csc(C)n1)[C@@H]1C[C@@H]2O[C@]2(C)CCC[C@H](C)[C@H](O)[C@@H](C)C(=O)C(C)(C)[C@@H](O)CC(=O)O1", "note": "[Epothilone B, Patupilone]", "GFP-": 1.03}, {"compound": "CC(=O)Nc1ccc(OC[C@](C)(O)C(=O)Nc2ccc([N+](=O)[O-])c(C(F)(F)F)c2)cc1", "note": "[Andarine]", "GFP-": 1}, {"compound": "O=c1cccc2n1C[C@@H]1CNC[C@H]2C1", "note": "[Cytisine]", "GFP-": 0.919}, {"compound": "CC[C@@H](C(N)=O)N1CCCC1=O", "note": "[Levetiracetam]", "GFP-": 0.963}, {"compound": "CCC1(C)CC(=O)NC(=O)C1", "note": "[Bemegride]", "GFP-": 0.914}, {"compound": "Cc1sc2c(c1C)C(c1ccc(Cl)cc1)=N[C@@H](CC(=O)OC(C)(C)C)c1nnc(C)n1-2", "GFP-": "0.802 ± 0.12"}, {"compound": "CN1[C@@H]2CC[C@H]1CC(OC(=O)C1C=Nc3ccccc31)C2", "note": "(stereo partly specified) [Tropisetron]", "GFP-": 1.13}]}]}
